US20030153623A1, “Solid preparation containing sparingly soluble NSAIDs” (Yamanouchi Pharmaceutical Co., Ltd., priority 1998, published 2003)

Experiment: Dissolution test, puddle method, first solution pH 1.2, various chemicals (Test Example 5)
Assay type: physicochemical
Conditions: raw material of the chemical; dissolved for 5 minutes; first solution (pH 1.2) 500 ml; 50 rpm; a dose of each chemical
Description: Samples 8-1 and 8-9, and raw materials of various chemicals as the control, were examined by the puddle method in an dissolution test according to the Japanese Pharmacopoeia, and the amount of ibuprofen (μg/ml) dissolved for 5 minutes in the test was determined. The test solution used was the first solution (pH 1.2) in a disintegration test in the Japanese Pharmacopoeia, the amount of the dissolution medium was 500 ml, and the number of puddle revolutions was 50 rpm. Each sample contains a dose of each chemical.

COc1ccc2cc([C@H](C)C(=O)O)ccc2c1 [Naproxen]
Dissolved amount, Control: 5.92 µg/mL
